# Data from the supplement of paper PMC11438910.
# This is one part of the list. The signal is at background level for most entries.
# What was measured:
# Experiment in all cases: fluorescence intensity of antibody binding to polysaccharide-coupled beads; higher = stronger binding
# [1] = biological target: pneumococcal polysaccharide Pn13
# Procedure: (§1)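 Recombinant rhesus-murine chimeric IgG1 antibodies were tested against antigen-coupled MagPlex beads in a 96-plex Luminex direct immunoassay (dLIA). The beads carried pneumococcal capsular polysaccharides of 93 serotypes plus C-polysaccharides. Antibody was added at 0.1–12,500 ng/mL for 1 h, then PE anti-mouse IgG, and net MFI was read on a Bio-Plex 3D. Only the rhesus variable regions are printed; constant regions are murine IgG1/kappa/lambda, and the signal peptide is MGWSCIILFLVATATGVHS.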
# [2] = biological target: pneumococcal polysaccharide Pn14
# Procedure: as §1
# [3] = biological target: pneumococcal polysaccharide Pn15A
# Procedure: as §1
# [4] = biological target: pneumococcal polysaccharide Pn15B
# Procedure: as §1
# [5] = biological target: pneumococcal polysaccharide Pn15C
# Procedure: as §1
# [6] = biological target: pneumococcal polysaccharide Pn15F
# Procedure: as §1
# [7] = biological target: pneumococcal polysaccharide Pn16A
# Procedure: as §1
# [8] = biological target: pneumococcal polysaccharide Pn16F
# Procedure: as §1
# [9] = biological target: pneumococcal polysaccharide Pn17A
# Procedure: as §1
# [10] = biological target: pneumococcal polysaccharide Pn17F
# Procedure: as §1
# [11] = biological target: pneumococcal polysaccharide Pn18A
# Procedure: as §1
# [12] = biological target: pneumococcal polysaccharide Pn18B
# Procedure: as §1
# [13] = biological target: pneumococcal polysaccharide Pn18C
# Procedure: as §1
# [14] = biological target: pneumococcal polysaccharide Pn18F
# Procedure: as §1
# [15] = biological target: pneumococcal polysaccharide Pn19A
# Procedure: as §1
# [16] = biological target: pneumococcal polysaccharide Pn19B
# Procedure: as §1
# [17] = biological target: pneumococcal polysaccharide Pn19C
# Procedure: as §1
# [18] = biological target: pneumococcal polysaccharide Pn19F
# Procedure: as §1
# [19] = biological target: pneumococcal polysaccharide Pn2
# Procedure: as §1
# [20] = biological target: pneumococcal polysaccharide Pn20A
# Procedure: as §1
# [21] = biological target: pneumococcal polysaccharide Pn20B
# Procedure: as §1
# [22] = biological target: pneumococcal polysaccharide Pn21
# Procedure: as §1
# [23] = biological target: pneumococcal polysaccharide Pn22A
# Procedure: as §1
# [24] = antibody concentration 0.1 ng/mL
# [25] = antibody concentration 0.534724 ng/mL
# [26] = antibody concentration 2.8593 ng/mL
# [27] = antibody concentration 15.2894 ng/mL
# [28] = antibody concentration 81.7561 ng/mL
# [29] = antibody concentration 437.17 ng/mL
# [30] = antibody concentration 2337.65 ng/mL
# [31] = antibody concentration 12500 ng/mL
binder,measurement,setting,value
4-127.3 (protein) chain 1: QVQLQESGPGLVKPSETLSLTCAVSGYSISSGYGWSWIRQPPGKGLEWIGYIGGSSGSTNYNPSLKSRVTVSKDTSKNQFSLKLSSVTAADTAVYYCARADYCTSTTCYGPNRFDVWGPGVLVTVSS chain 2: QAAPTQSPSVSGSAGQSVTISCTGSSSDIGYYNGVSWYQHHPGKAPKLMIYEVSKRPSGVSNRFSGSKSGNTASLTISGLQAADEADYFCSSYAGSGTYIFGAGTRLTVL,fluorescence intensity,[1]; [24],19 MFI
same,fluorescence intensity,[1]; [25],18.8 MFI
same,fluorescence intensity,[1]; [26],18 MFI
same,fluorescence intensity,[1]; [27],19.5 MFI
same,fluorescence intensity,[1]; [28],18.5 MFI
same,fluorescence intensity,[1]; [29],19.5 MFI
same,fluorescence intensity,[1]; [30],20 MFI
same,fluorescence intensity,[1]; [31],28.2 MFI
same,fluorescence intensity,[2]; [24],15 MFI
same,fluorescence intensity,[2]; [25],15.5 MFI
same,fluorescence intensity,[2]; [26],16 MFI
same,fluorescence intensity,[2]; [27],15.5 MFI
same,fluorescence intensity,[2]; [28],15 MFI
same,fluorescence intensity,[2]; [29],17 MFI
same,fluorescence intensity,[2]; [30],23 MFI
same,fluorescence intensity,[2]; [31],72.5 MFI
same,fluorescence intensity,[3]; [24],14 MFI
same,fluorescence intensity,[3]; [25],13.5 MFI
same,fluorescence intensity,[3]; [26],13 MFI
same,fluorescence intensity,[3]; [27],14 MFI
same,fluorescence intensity,[3]; [28],13 MFI
same,fluorescence intensity,[3]; [29],13.5 MFI
same,fluorescence intensity,[3]; [30],14.5 MFI
same,fluorescence intensity,[3]; [31],16 MFI
same,fluorescence intensity,[4]; [24],19 MFI
same,fluorescence intensity,[4]; [25],20 MFI
same,fluorescence intensity,[4]; [26],20.5 MFI
same,fluorescence intensity,[4]; [27],20.5 MFI
same,fluorescence intensity,[4]; [28],20.2 MFI
same,fluorescence intensity,[4]; [29],19.8 MFI
same,fluorescence intensity,[4]; [30],24.8 MFI
same,fluorescence intensity,[4]; [31],32.8 MFI
same,fluorescence intensity,[5]; [24],17.5 MFI
same,fluorescence intensity,[5]; [25],19.5 MFI
same,fluorescence intensity,[5]; [26],16.5 MFI
same,fluorescence intensity,[5]; [27],19 MFI
same,fluorescence intensity,[5]; [28],21 MFI
same,fluorescence intensity,[5]; [29],20.5 MFI
same,fluorescence intensity,[5]; [30],20.8 MFI
same,fluorescence intensity,[5]; [31],25.2 MFI
same,fluorescence intensity,[6]; [24],19 MFI
same,fluorescence intensity,[6]; [25],18.5 MFI
same,fluorescence intensity,[6]; [26],18 MFI
same,fluorescence intensity,[6]; [27],18.5 MFI
same,fluorescence intensity,[6]; [28],16.5 MFI
same,fluorescence intensity,[6]; [29],17.5 MFI
same,fluorescence intensity,[6]; [30],19 MFI
same,fluorescence intensity,[6]; [31],25.5 MFI
same,fluorescence intensity,[7]; [24],17 MFI
same,fluorescence intensity,[7]; [25],16.5 MFI
same,fluorescence intensity,[7]; [26],14 MFI
same,fluorescence intensity,[7]; [27],14.2 MFI
same,fluorescence intensity,[7]; [28],14 MFI
same,fluorescence intensity,[7]; [29],15.5 MFI
same,fluorescence intensity,[7]; [30],16 MFI
same,fluorescence intensity,[7]; [31],23.2 MFI
same,fluorescence intensity,[8]; [24],26 MFI
same,fluorescence intensity,[8]; [25],26 MFI
same,fluorescence intensity,[8]; [26],25.5 MFI
same,fluorescence intensity,[8]; [27],25.5 MFI
same,fluorescence intensity,[8]; [28],25.5 MFI
same,fluorescence intensity,[8]; [29],26.5 MFI
same,fluorescence intensity,[8]; [30],29 MFI
same,fluorescence intensity,[8]; [31],35 MFI
same,fluorescence intensity,[9]; [24],23.5 MFI
same,fluorescence intensity,[9]; [25],20.5 MFI
same,fluorescence intensity,[9]; [26],21.5 MFI
same,fluorescence intensity,[9]; [27],21 MFI
same,fluorescence intensity,[9]; [28],22.5 MFI
same,fluorescence intensity,[9]; [29],22 MFI
same,fluorescence intensity,[9]; [30],22 MFI
same,fluorescence intensity,[9]; [31],23 MFI
same,fluorescence intensity,[10]; [24],26.8 MFI
same,fluorescence intensity,[10]; [25],27.5 MFI
same,fluorescence intensity,[10]; [26],27 MFI
same,fluorescence intensity,[10]; [27],26.5 MFI
same,fluorescence intensity,[10]; [28],26.5 MFI
same,fluorescence intensity,[10]; [29],27.5 MFI
same,fluorescence intensity,[10]; [30],27.5 MFI
same,fluorescence intensity,[10]; [31],30 MFI
same,fluorescence intensity,[11]; [24],24.2 MFI
same,fluorescence intensity,[11]; [25],24 MFI
same,fluorescence intensity,[11]; [26],24 MFI
same,fluorescence intensity,[11]; [27],22.5 MFI
same,fluorescence intensity,[11]; [28],24 MFI
same,fluorescence intensity,[11]; [29],24 MFI
same,fluorescence intensity,[11]; [30],25.5 MFI
same,fluorescence intensity,[11]; [31],28 MFI
same,fluorescence intensity,[12]; [24],30 MFI
same,fluorescence intensity,[12]; [25],31 MFI
same,fluorescence intensity,[12]; [26],31.2 MFI
same,fluorescence intensity,[12]; [27],32 MFI
same,fluorescence intensity,[12]; [28],30.5 MFI
same,fluorescence intensity,[12]; [29],32.5 MFI
same,fluorescence intensity,[12]; [30],34.5 MFI
same,fluorescence intensity,[12]; [31],41.2 MFI
same,fluorescence intensity,[13]; [24],19.2 MFI
same,fluorescence intensity,[13]; [25],20 MFI
same,fluorescence intensity,[13]; [26],19.5 MFI
same,fluorescence intensity,[13]; [27],19 MFI
same,fluorescence intensity,[13]; [28],21 MFI
same,fluorescence intensity,[13]; [29],21.5 MFI
same,fluorescence intensity,[13]; [30],23.5 MFI
same,fluorescence intensity,[13]; [31],33.5 MFI
same,fluorescence intensity,[14]; [24],22 MFI
same,fluorescence intensity,[14]; [25],24.8 MFI
same,fluorescence intensity,[14]; [26],23.5 MFI
same,fluorescence intensity,[14]; [27],24.5 MFI
same,fluorescence intensity,[14]; [28],24.5 MFI
same,fluorescence intensity,[14]; [29],26 MFI
same,fluorescence intensity,[14]; [30],29.2 MFI
same,fluorescence intensity,[14]; [31],35 MFI
same,fluorescence intensity,[15]; [24],19.5 MFI
same,fluorescence intensity,[15]; [25],18.8 MFI
same,fluorescence intensity,[15]; [26],17.8 MFI
same,fluorescence intensity,[15]; [27],17.5 MFI
same,fluorescence intensity,[15]; [28],18.5 MFI
same,fluorescence intensity,[15]; [29],19.8 MFI
same,fluorescence intensity,[15]; [30],20.5 MFI
same,fluorescence intensity,[15]; [31],30 MFI
same,fluorescence intensity,[16]; [24],33.5 MFI
same,fluorescence intensity,[16]; [25],28 MFI
same,fluorescence intensity,[16]; [26],29.5 MFI
same,fluorescence intensity,[16]; [27],28.2 MFI
same,fluorescence intensity,[16]; [28],30 MFI
same,fluorescence intensity,[16]; [29],30 MFI
same,fluorescence intensity,[16]; [30],36.5 MFI
same,fluorescence intensity,[16]; [31],103 MFI
same,fluorescence intensity,[17]; [24],28.2 MFI
same,fluorescence intensity,[17]; [25],26.8 MFI
same,fluorescence intensity,[17]; [26],25.8 MFI
same,fluorescence intensity,[17]; [27],25.2 MFI
same,fluorescence intensity,[17]; [28],25.5 MFI
same,fluorescence intensity,[17]; [29],25.5 MFI
same,fluorescence intensity,[17]; [30],30.5 MFI
same,fluorescence intensity,[17]; [31],65.8 MFI
same,fluorescence intensity,[18]; [24],27 MFI
same,fluorescence intensity,[18]; [25],25.5 MFI
same,fluorescence intensity,[18]; [26],26.5 MFI
same,fluorescence intensity,[18]; [27],27.5 MFI
same,fluorescence intensity,[18]; [28],27 MFI
same,fluorescence intensity,[18]; [29],27 MFI
same,fluorescence intensity,[18]; [30],31 MFI
same,fluorescence intensity,[18]; [31],46.5 MFI
same,fluorescence intensity,[19]; [24],20.2 MFI
same,fluorescence intensity,[19]; [25],20.5 MFI
same,fluorescence intensity,[19]; [26],19.5 MFI
same,fluorescence intensity,[19]; [27],21 MFI
same,fluorescence intensity,[19]; [28],20 MFI
same,fluorescence intensity,[19]; [29],21 MFI
same,fluorescence intensity,[19]; [30],22.5 MFI
same,fluorescence intensity,[19]; [31],29 MFI
same,fluorescence intensity,[20]; [24],24.5 MFI
same,fluorescence intensity,[20]; [25],23.5 MFI
same,fluorescence intensity,[20]; [26],22.8 MFI
same,fluorescence intensity,[20]; [27],22.8 MFI
same,fluorescence intensity,[20]; [28],23.8 MFI
same,fluorescence intensity,[20]; [29],22.8 MFI
same,fluorescence intensity,[20]; [30],27.2 MFI
same,fluorescence intensity,[20]; [31],69.2 MFI
same,fluorescence intensity,[21]; [24],24 MFI
same,fluorescence intensity,[21]; [25],24 MFI
same,fluorescence intensity,[21]; [26],25.2 MFI
same,fluorescence intensity,[21]; [27],25.5 MFI
same,fluorescence intensity,[21]; [28],23.5 MFI
same,fluorescence intensity,[21]; [29],23.5 MFI
same,fluorescence intensity,[21]; [30],25.5 MFI
same,fluorescence intensity,[21]; [31],34 MFI
same,fluorescence intensity,[22]; [24],20.5 MFI
same,fluorescence intensity,[22]; [25],19.5 MFI
same,fluorescence intensity,[22]; [26],19.8 MFI
same,fluorescence intensity,[22]; [27],21.2 MFI
same,fluorescence intensity,[22]; [28],20.5 MFI
same,fluorescence intensity,[22]; [29],20 MFI
same,fluorescence intensity,[22]; [30],20.2 MFI
same,fluorescence intensity,[22]; [31],25.5 MFI
same,fluorescence intensity,[23]; [24],22 MFI
same,fluorescence intensity,[23]; [25],21 MFI
same,fluorescence intensity,[23]; [26],22.5 MFI
same,fluorescence intensity,[23]; [27],21.5 MFI

# Quoted from the listing (5 entries):
binder,measurement,setting,value
4-127.3 (protein) chain 1: QVQLQESGPGLVKPSETLSLTCAVSGYSISSGYGWSWIRQPPGKGLEWIGYIGGSSGSTNYNPSLKSRVTVSKDTSKNQFSLKLSSVTAADTAVYYCARADYCTSTTCYGPNRFDVWGPGVLVTVSS chain 2: QAAPTQSPSVSGSAGQSVTISCTGSSSDIGYYNGVSWYQHHPGKAPKLMIYEVSKRPSGVSNRFSGSKSGNTASLTISGLQAADEADYFCSSYAGSGTYIFGAGTRLTVL,fluorescence intensity,[3]; [24],14 MFI
same,fluorescence intensity,[3]; [25],13.5 MFI
same,fluorescence intensity,[3]; [26],13 MFI
same,fluorescence intensity,[3]; [27],14 MFI
same,fluorescence intensity,[3]; [28],13 MFI
